Results are given in words; binding and its absence hold for the method and conditions named. A result given as binding can be weak or reduced; the word gives no strength.
Experiments:
[1] = molecular target: recombinant cynomolgus Siglec-15-his protein (Bonopusbio, CW70-50 ug) (cynomolgus monkey); experiment: ELISA, plate coated with 2 µg/ml cynomolgus Siglec-15-his, antibody 3-fold dilutions from 198 nM, HRP goat anti-human IgG Fc, OD450
[2] = molecular target: recombinant mouse Siglec-15-his protein (Bonopusbio, CW71-50 ug) (mouse); experiment: ELISA, plate coated with 2 µg/ml mouse Siglec-15-his, antibody 3-fold dilutions from 198 nM, HRP goat anti-human IgG Fc, OD450
[3] = molecular target: recombinant cynomolgus Siglec-15-his protein (Bonopusbio, CW70-50 ug) (cynomolgus monkey); experiment: ELISA on coated recombinant cynomolgus Siglec-15-his (FIG. 15B)
[4] = molecular target: recombinant mouse Siglec-15-his protein (Bonopusbio, CW71-50 ug) (mouse); experiment: ELISA on coated recombinant mouse Siglec-15-his (FIG. 15C)
[5] = molecular target: recombinant cynomolgus Siglec-15-his protein (Bonopusbio, CW70-50 ug) (cynomolgus monkey); experiment: ELISA, plate coated with recombinant cynomolgus Siglec-15-his, antibody titrated up to about 200 nM, OD 450 nm
[6] = molecular target: recombinant cynomolgus Siglec-15-his protein (Bonopusbio, CW70-50 ug) (cynomolgus monkey); experiment: ELISA on coated recombinant cynomolgus Siglec-15-his
[7] = molecular target: recombinant cynomolgus Siglec-15-his protein (Bonopusbio, CW70-50 ug) (cynomolgus monkey); experiment: ELISA, plate coated with 100 ng per well recombinant cynomolgus Siglec-15 (supplier not named in Example 3), HRP anti-mouse IgG, OD450
[8] = molecular target: recombinant cynomolgus Siglec-15-his protein (Bonopusbio, CW70-50 ug) (cynomolgus monkey); experiment: ELISA, plate coated with 2 µg/ml cynomolgus Siglec-15-his, antibody 3-fold dilutions from 198 nM, HRP goat anti-human IgG Fc, OD 450 nm
[9] = molecular target: recombinant mouse Siglec-15-his protein (Bonopusbio, CW71-50 ug) (mouse); experiment: ELISA, plate coated with 2 µg/ml mouse Siglec-15-his, antibody 3-fold dilutions from 198 nM, HRP goat anti-human IgG Fc, OD 450 nm
[10] = molecular target: recombinant mouse Siglec-15-his protein (Bonopusbio, CW71-50 ug) (mouse); experiment: ELISA, plate coated with 100 ng per well recombinant mouse Siglec-15 (supplier not named in Example 3), HRP anti-mouse IgG, OD450
[11] = molecular target: recombinant mouse Siglec-15-his protein (Bonopusbio, CW71-50 ug) (mouse); experiment: ELISA, plate coated with recombinant mouse Siglec-15-his, antibody titrated up to about 200 nM, OD 450 nm
[12] = molecular target: recombinant mouse Siglec-15-his protein (Bonopusbio, CW71-50 ug) (mouse); experiment: ELISA on coated recombinant mouse Siglec-15-his

Measured: binding

B1: ZLA-1243-E01 (antibody, V domains shown)
VH: QVQLVQSGGGLVQPGRSLRLSCAASGFTFDDYAMHWVRQAPGKGLEWVSGISWNSGSIGYADSVKGRFTISRDNAKNSLYLQMNSLRAEDTALYYCAKGLWPSYDLDAFDIWGQGTMVTVSS
VL: QSALTQPASVSGSPGQSITLSCTGTSSDVGAYNFVSWYQQHPGTAPKLMIYEVSNRPSGVSDRFSGSKSGNTASLTISGLQAEDEADYYCSSYTSTIPPFVFGTGTKVTVL
binds: [1] | [2] | [3] | [4]

B2: S15B1 (antibody, V domains shown)
VH: QVQLQQSGPELVKPGASVKISCKASGYAFSSSWMNWVKQRPGKGLEWIGRIYPGHGETNYNGKFKDKATVTADKSSSTTYMQLSSLTSEDSAVYFCARVDNSDPYYFDYWGQGTTLTVSS
VL: DIVLTQSPASLAVSLGQRATISCRASKSVSTSGYSYMHWYQQKPGQPPKLLIYLASNLESGVPARFSGSGSGTDFTLNIHPVEEEDAATYYCQHGRELPFTFGSGTKLEIK
not listed: [1] | [2] | [3] | [4]
binds: all other assays above

B3: S15B1-VH3 + VL2 (antibody, V domains shown)
VH: QVQLVQSGAEVKKPGASVKVSCKASGYAFSSSWMNWVKQAPGQGLEWIGRIYPGHGETNYNGKFKDRATMTADTSTSTVYMELSSLRSEDTAVYFCARVDNSDPYYFDYWGQGTTVTVSS
VL: DIVLTQSPASLAVSPGQRATITCRASKSVSTSGYSYMHWYQQKPGQPPKLLIYLASNLESGVPARFSGSGSGTDFTLTINPVEAEDTATYYCQHGRELPFTFGGGTKLEIK
binds: [5] | [6] | [11] | [12]

B4: S15B1-VH2 + VL2 (antibody, V domains shown)
VH: QVQLVQSGAEVKKPGASVKVSCKASGYAFSSSWMNWVRQAPGQGLEWIGRIYPGHGETNYNGKFKDRVTMTADTSTSTVYMELSSLRSEDTAVYFCARVDNSDPYYFDYWGQGTTVTVSS
VL: DIVLTQSPASLAVSPGQRATITCRASKSVSTSGYSYMHWYQQKPGQPPKLLIYLASNLESGVPARFSGSGSGTDFTLTINPVEAEDTATYYCQHGRELPFTFGGGTKLEIK
binds: [5] | [6] | [11] | [12]

B5: S15B1-VH3 + VL1 (antibody, V domains shown)
VH: QVQLVQSGAEVKKPGASVKVSCKASGYAFSSSWMNWVKQAPGQGLEWIGRIYPGHGETNYNGKFKDRATMTADTSTSTVYMELSSLRSEDTAVYFCARVDNSDPYYFDYWGQGTTVTVSS
VL: DIVLTQSPASLAVSPGQRATITCRASKSVSTSGYSYMHWYQQKPGQPPKLLIYLASNLESGVPARFSGSGSGTDFTLTINPVEAEDTANYYCQHGRELPFTFGGGTKLEIK
binds: [5] | [6] | [11] | [12]
